No constants are given. Whether binding was seen depends on the method and setting. Some results given as binding are weak or reduced against the parent protein; the word gives no strength.
Target: recombinant tPA (in the rodent serpinE2/tPA complex) (UniProt P00750)
Experiment: SDS-stable complex seen by western blot; recombinant serpinE2 and tPA bound to each other beforehand, complex immunoprecipitated with Ab11 and Protein G, western blot with a serpinE2-specific antibody; complex band above uncomplexed serpinE2; both purified

Amino acid sequences for entries named in this document (tags omitted). Residues count along the entry.
UniProt P00750, residues 36-562: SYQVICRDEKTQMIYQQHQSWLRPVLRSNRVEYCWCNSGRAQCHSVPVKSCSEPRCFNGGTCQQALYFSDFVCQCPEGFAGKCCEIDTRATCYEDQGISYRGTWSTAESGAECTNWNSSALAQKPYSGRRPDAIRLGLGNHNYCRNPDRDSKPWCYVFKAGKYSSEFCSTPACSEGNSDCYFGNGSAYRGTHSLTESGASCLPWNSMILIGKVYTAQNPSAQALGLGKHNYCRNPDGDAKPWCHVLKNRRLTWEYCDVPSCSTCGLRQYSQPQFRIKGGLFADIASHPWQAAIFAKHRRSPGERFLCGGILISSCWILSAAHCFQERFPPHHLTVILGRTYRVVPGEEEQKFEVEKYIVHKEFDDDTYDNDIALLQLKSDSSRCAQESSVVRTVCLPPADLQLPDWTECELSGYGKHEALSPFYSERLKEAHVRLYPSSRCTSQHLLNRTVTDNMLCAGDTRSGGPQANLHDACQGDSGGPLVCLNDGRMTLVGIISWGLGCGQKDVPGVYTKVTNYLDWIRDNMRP

B1: rodent recombinant serpinE2 (protein, UniProt P07092 20-397)
chain: SQLNSLSLEELGSDTGIQVFNQIIKSQPHENVVISPHGIASILGMLQLGADGRTKKQLSTVMRYNVNGVGKVLKKINKAIVSKKNKDIVTVANAVFVRNGFKVEVPFAARNKEVFQCEVQSVNFQDPASACDAINFWVKNETRGMIDNLLSPNLIDSALTKLVLVNAVYFKGLWKSRFQPENTKKRTFVAGDGKSYQVPMLAQLSVFRSGSTKTPNGLWYNFIELPYHGESISMLIALPTESSTPLSAIIPHISTKTINSWMNTMVPKRMQLVLPKFTALAQTDLKEPLKALGITEMFEPSKANFAKITRSESLHVSHILQKAKIEVSEDGTKAAVVTTAILIARSSPPWFIVDRPFLFCIRHNPTGAILFLGQVNKP
  binding: binds

Source: PMC5347692, “Serpin E2 promotes breast cancer metastasis by remodeling the tumor matrix and polarizing tumor associated macrophages” (Oncotarget, 2016)
